According to PubChem BioAssay AID588590 (National Center for Advancing Translational Sciences (NCATS), 2011):
Among all 390,000 compounds or so, about 4,000 (1%) were called active. The inconclusive results got no clear call from the source; some entries with a clear call stand among them for comparison. Calls follow the shape of the dose curve; as a rule, active = well fitted inhibition curve with a large enough effect; inconclusive = small, poorly fitted or top-dose-only effect, or another doubt; inactive = no such curve, though single readings can be large or run the other way. A potency beside an inconclusive call is a rough fit, not a confirmed value.

Amino acid sequences for entries named in this document (tags omitted). A change or cut given only in a name is not applied to a line headed by its entry.
UniProt Q9UNA4: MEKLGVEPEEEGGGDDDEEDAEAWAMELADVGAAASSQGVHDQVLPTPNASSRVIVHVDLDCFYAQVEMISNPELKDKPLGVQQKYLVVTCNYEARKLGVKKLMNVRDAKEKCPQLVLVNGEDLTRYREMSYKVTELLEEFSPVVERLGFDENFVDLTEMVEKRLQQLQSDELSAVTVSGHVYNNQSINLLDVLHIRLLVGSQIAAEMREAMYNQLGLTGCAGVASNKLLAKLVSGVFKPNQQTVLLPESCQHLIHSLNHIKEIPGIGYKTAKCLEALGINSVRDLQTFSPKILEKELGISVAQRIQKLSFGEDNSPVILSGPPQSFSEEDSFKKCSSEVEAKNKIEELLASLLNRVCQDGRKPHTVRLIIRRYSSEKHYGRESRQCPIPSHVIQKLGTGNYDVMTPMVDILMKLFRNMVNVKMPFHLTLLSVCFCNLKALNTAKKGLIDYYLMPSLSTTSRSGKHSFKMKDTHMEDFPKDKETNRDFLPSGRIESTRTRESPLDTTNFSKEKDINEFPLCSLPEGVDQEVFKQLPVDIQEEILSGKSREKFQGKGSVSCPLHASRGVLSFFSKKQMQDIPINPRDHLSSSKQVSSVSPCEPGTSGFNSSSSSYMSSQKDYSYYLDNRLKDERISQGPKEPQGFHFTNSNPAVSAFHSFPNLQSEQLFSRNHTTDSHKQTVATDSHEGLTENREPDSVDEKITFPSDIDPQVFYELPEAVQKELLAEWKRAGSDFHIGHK

molecular target: DNA polymerase iota (Homo sapiens) (UniProt Q9UNA4); assay: qHTS for Inhibitors of Polymerase Iota; settings: Pol iota fluorescent replication assay, 10 min; series mostly up to 115 µM; activity, negative = inhibition: at the top concentration
How it was run: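 Pol iota at 10 nM preincubated 15 min with compounds at room temperature; reaction started with fluorescent substrate, 50 nM final. Fluorescence read kinetically at 0 and 10 min; buffer-only wells as negative control.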
Potency is read from the fitted curve at half-maximal effect.

| Structure (SMILES) | Potency | activity, negative = inhibition |
| --- | --- | --- |
| Oc1cccc(-c2nc3ccc4ccccc4c3c3c2CCC3)c1 | inconclusive: 22.4 µM [inhibitor, single point] | – |
| Cc1sc2nc(CSC(C)C(=O)Nc3ccc(C#N)cc3)[nH]c(=O)c2c1C (configuration not stated) | inconclusive: 28.2 µM [inhibitor, partial curve, poor fit] | – |
| COC(=O)c1ccccc1NC(=O)c1ccc2c(c1)CCN2S(C)(=O)=O | – | inactive: 12% |
| COc1cccc(NC(=S)N2CCN(S(=O)(=O)c3ccccc3)CC2)c1 | inconclusive: 100 µM [inhibitor, single point] | – |
| N#CCCCSc1nnc(Cc2ccc3c(c2)OCO3)o1 | inconclusive: 12.6 µM [inhibitor, partial curve, poor fit] | – |
| CCCCNc1nc2c(S(=O)(=O)c3ccc(C)c(C)c3)nnn2c2ccsc12 | – | inactive: -15.3% |
| Cc1c(C(=O)N2CCN(C3CCS(=O)(=O)C3)CC2)oc2c(F)cccc12 (configuration not stated) | inconclusive: 50.1 µM [inhibitor, single point] | – |
| Cc1ccc(Cl)cc1Nc1nc(-c2sc(NC(=O)c3ccco3)nc2C)cs1 | inconclusive: 39.8 µM [inhibitor, single point] | – |
| COc1ccc(NC(=O)c2cccn2-c2nnc(N3CCCCC3)s2)cc1Cl | inconclusive: 56.2 µM [inhibitor, partial curve, poor fit] | – |
| CCCCOC(=O)c1ccc(NC(=O)CSc2nc3c(c(=O)[nH]2)CCCC3)cc1 | – | inactive: 24.1% |
| COc1ccccc1NC(=S)NCCc1c[nH]c2ccccc12 | inconclusive: 2.51 µM [inhibitor, full curve, poor fit] | – |
| COc1ccc(C(=O)NNC(=S)NC(=O)/C=C/c2cccs2)cc1 | – | inactive: 37.6% |
| COc1ccc(-c2n[nH]c(C(F)(F)F)c2-c2cc3ccccc3o2)c(O)c1 | active: 79.4 µM | – |
| O=C(CNS(=O)(=O)c1c(F)cccc1F)NC1CCCc2ccccc21 (configuration not stated) | – | inactive: 7.52% |
| C=CCn1c(SCc2ccc([N+](=O)[O-])cc2)nnc1C(C)NC(=O)c1ccccc1 (configuration not stated) | inconclusive: 89.1 µM [inhibitor, single point] | – |
| CCOc1ccccc1NC(=O)CN1C(=O)CC(c2ccc(OC)c(OC)c2)Sc2ccccc21 (configuration not stated) | – | inactive: 13.7% |
| COC(=O)c1ccc(NC(=O)c2nc(S(=O)(=O)Cc3ccccc3F)ncc2Cl)cc1 | inconclusive: 39.8 µM [inhibitor, partial curve] | – |
| Cc1ccc(C)c(S(=O)(=O)N2CCN(C(=O)CCC(=O)NCc3ccc(Cl)cc3)CC2)c1 | inconclusive: 28.2 µM [inhibitor, partial curve, poor fit] | – |
| O=C(O)c1ccccc1NS(=O)(=O)c1ccc(NN=Cc2ccccc2F)c([N+](=O)[O-])c1 | active: 56.2 µM | – |
| C=CCn1c(=O)c2ccccc2n2c(SCc3cc(=O)n4ccsc4n3)nnc12 | inconclusive: 112 µM [inhibitor, partial curve, poor fit] | – |
| C=CCc1ccc(OCc2ccc(C(=O)O)o2)c(OC)c1 | inconclusive: 35.5 µM [inhibitor, full curve, poor fit] | – |
| CCc1c(C)sc(NC(=O)c2cc(C3CC3)on2)c1C#N | inconclusive: 20 µM [inhibitor, partial curve, poor fit] | – |
| Cc1cc(C)cc(NS(=O)(=O)c2ccc3[nH]cc(C(=O)N(C)Cc4ccccc4)c(=O)c3c2)c1 | inconclusive: 79.4 µM [inhibitor, single point] | – |

| Structure (SMILES) | Potency | activity, negative = inhibition |
| --- | --- | --- |
| CC(=O)c1cccc(NC(=O)C2CCCN2S(=O)(=O)c2cccc3nsnc23)c1 (configuration not stated) | inconclusive: 39.8 µM [inhibitor, single point] | – |
| Cc1ccc(CNC(=O)Cn2c(=O)n(-c3ccc(Cl)cc3)c(=O)c3c(C)c(C)sc32)cc1 | – | inactive: -1.43% |
| COc1ccc(OC)c(/C=C(/C#N)c2nc(-c3ccc(-c4ccccc4)cc3)cs2)c1 | – | inactive: -4.43% |
| C[C@@H](NC(=O)c1coc(=O)c(Br)c1)c1ccccc1 | inconclusive: 15.8 µM [inhibitor, partial curve, poor fit] | – |
| COc1ccc(NC(=O)CC2C(=O)N(c3ccc(F)cc3)C(=O)N2Cc2ccco2)cc1 (configuration not stated) | – | inactive: 20.1% |
| CCCCCCCCCCC/C=C\C(C)(C)/C=C\CCCC(=O)O | active: 28.2 µM | – |
| CCN1C(=O)c2cccc3c(S(=O)(=O)NC(Cc4c[nH]c5ccccc45)C(=O)O)ccc1c23 (configuration not stated) | inconclusive: 100 µM [inhibitor, partial curve, poor fit] | – |
| COCCCNC(=O)/C(C#N)=C/c1ccc(OCC(=O)O)c(OC)c1 | active: 10 µM | – |
| Cc1cccc(N2CCN(C(=O)CN3CCSc4ccccc43)CC2C)c1 (configuration not stated) | – | inactive: 16.2% |
| N#Cc1cc(N2CCCCC2)c([N+](=O)[O-])cc1C#N | – | inactive: -10.7% |
| Cc1oc(-c2cccs2)nc1CNC[C@H]1O[C@@H](n2cnc(C(N)=O)n2)[C@H](O)[C@@H]1O | inconclusive: 10 µM [inhibitor, partial curve, poor fit] | – |
| Cc1cnn(C(=S)NCC2CCCO2)c1 (configuration not stated) | inconclusive: 25.1 µM [inhibitor, single point] | – |
| NC(=O)c1c(NC(=O)CN2C(=O)CCC2=O)sc2c1CCCCC2 | – | inactive: 31% |
| O=C(Nc1cccnc1)c1ccc2ccccc2c1O | – | inactive: 102% |
| CCCN1C(=O)CC(c2ccco2)Sc2ccccc21 (configuration not stated) | inconclusive: 22.4 µM [inhibitor, full curve, poor fit] | – |
| O=C(Nc1ccc2nc(SCC(=O)N3CCc4ccccc43)sc2c1)c1ccc(F)cc1 | – | inactive: -17.6% |
| O=C(NCc1cccc(Cl)c1)c1ccc2ccccc2n1 | inconclusive: 89.1 µM [inhibitor, single point] | – |
| O=C(NCCCN1CCCCCC1)C1CCCN(S(=O)(=O)c2cccc3nsnc23)C1 (configuration not stated) | inconclusive: 79.4 µM [inhibitor, single point] | – |
| OC1CCCN(c2c3c(nc4cc(-c5cccc(Cl)c5)nn24)CCC3)C1 (configuration not stated) | inconclusive: 25.1 µM [inhibitor, full curve] | – |
| O=C(CCC(=O)c1ccc(F)cc1)Nc1cccc(S(=O)(=O)Nc2cccc(Cl)c2)c1 | inconclusive: 112 µM [inhibitor, single point] | – |
| Cc1ccc(NC(=O)c2cnn3c(C(F)F)cc(-c4ccccc4)nc23)cc1F | – | inactive: -2.66% |
| COc1ccccc1N(O)C1CC(=O)N(c2ccc(F)cc2)C1=O (configuration not stated) | inconclusive: 15.8 µM [inhibitor, full curve, poor fit] | – |
| COC1=CC(=Cc2c(N)n3nc(CC(=O)N4CCOCC4)sc3nc2=O)C=C(OC)C1=O | active: 22.4 µM | – |

Reformatted: five of the compounds above.
Structure (SMILES)	Potency	activity, negative = inhibition
Cc1cnn(C(=S)NCC2CCCO2)c1 (configuration not stated)	inconclusive: 25.1 µM [inhibitor, single point]	–
NC(=O)c1c(NC(=O)CN2C(=O)CCC2=O)sc2c1CCCCC2	–	inactive: 31%
O=C(Nc1cccnc1)c1ccc2ccccc2c1O	–	inactive: 102%
CCCN1C(=O)CC(c2ccco2)Sc2ccccc21 (configuration not stated)	inconclusive: 22.4 µM [inhibitor, full curve, poor fit]	–
O=C(Nc1ccc2nc(SCC(=O)N3CCc4ccccc43)sc2c1)c1ccc(F)cc1	–	inactive: -17.6%

Next part:

| Structure (SMILES) | Potency | activity, negative = inhibition |
| --- | --- | --- |
| Cc1ccc(CNC(=O)Cn2c(=O)cc(C(F)(F)F)c3c(C)nn(C)c32)cc1 | inconclusive: 39.8 µM [inhibitor, single point] | – |
| O=C1C=CC2(C=C1)O[C@H](Cc1ccccc1)[C@@H](Cc1ccccc1)O2 | inconclusive: 14.1 µM [inhibitor, partial curve, poor fit] | – |
| O=[N+]([O-])c1cc(-c2ccccc2)cc([N+](=O)[O-])c1O | – | inactive: -0.113% |
| O=C(O)c1cc(-c2ccc3c(c2)OCO3)nc2ccc(Cl)cc12 | inconclusive: 44.7 µM [inhibitor, partial curve] | – |
| Cc1cc(NC(=O)c2cc(C(C)(C)C)oc2C)no1 | inconclusive: 56.2 µM [inhibitor, partial curve, poor fit] | – |
| O=C(CCS(=O)(=O)c1cc2c(cc1Cl)NC(=O)CO2)NCc1ccccc1Cl | – | inactive: 28.1% |
| Cc1ccc(CNC(=O)CSc2ncccn2)cc1 | inconclusive: 100 µM [inhibitor, partial curve, poor fit] | – |
| Cc1cccc(OCc2nnc(SCC(=O)N(C(C)C)C(C)C)n2Cc2ccco2)c1C | inconclusive: 20 µM [inhibitor, partial curve, poor fit] | – |
| O=c1[nH]c(-c2ccccn2)nc2ccccc12 | inconclusive: 70.8 µM [inhibitor, single point] | – |
| O=C(NOC(=O)c1ccccc1F)c1ccc(OC(F)F)cc1 | – | inactive: 27.9% |
| C=CC(C)(C)c1cc2cc3ccoc3cc2oc1=O | inconclusive: 63.1 µM [inhibitor, partial curve, poor fit] | – |
| CCN1CCN(C2=C(NS(=O)(=O)c3ccc(C)cc3)C(=O)c3ccccc3C2=O)CC1 | inconclusive: 31.6 µM [inhibitor, partial curve, poor fit] | – |
| CCOC(=O)C(c1ccccc1)N1CCN(c2ccc(OC)cc2)CC1 (configuration not stated) | inconclusive: 35.5 µM [inhibitor, single point] | – |
| C/C(=N/NC(=O)c1ccccn1)c1ccco1 | inconclusive: 50.1 µM [inhibitor, partial curve, poor fit] | – |
| CC(=O)OCC(=O)c1c[nH]c2ccccc12 | – | inactive: 20.8% |
| Cc1cc(SCC(=O)c2ccccc2)n2nc(C)nc2n1 | inconclusive: 10 µM [inhibitor, partial curve, poor fit] | – |
| Cc1[nH]n(-c2ccc(F)cc2)c(=O)c1/C=N/c1sc2c(c1C#N)CCCC2 | inconclusive: 7.08 µM [inhibitor, full curve] | – |
| O=C(NCC(c1ccc(F)cc1)N1CCOCC1)c1nn(-c2ccccc2)c(=O)c2ccccc12 (configuration not stated) | – | inactive: 2.18% |
| CCCN(CCC)C(=O)c1cc([N+](=O)[O-])cc2c1-c1ccc([N+](=O)[O-])cc1C2=C(C#N)C#N | inconclusive: 20 µM [inhibitor, single point] | – |
| Fc1ccccc1-c1nc(N2CCCCC2)c2ccccc2n1 | inconclusive: 100 µM [inhibitor, partial curve, poor fit] | – |
| COCc1c(C(=O)OCC(=O)NCc2ccco2)oc2ccccc12 | inconclusive: 28.2 µM [inhibitor, partial curve] | – |
